Reference: article PMC12305957
For at least one entry, the source does not settle the construct or the ends of the probe. For part of these data: At least one verdict rests on a figure or table, not on a statement of the authors. Where a protein sequence is shown, tags need not be part of it.

How the values were obtained:
[1] = biological target: T1, Abf1 (Saccharomyces cerevisiae) (UniProt P14164); assay: EMSA; details: naked DNA; 11.87 mM HEPES-KOH pH 7.9, 3 mM Tris-Cl, 96.67 mM NaCl, 3.33 mM KCl, 5.3 mM MgCl2, 0.13 mM Mg acetate, 1.33 uM ZnCl2, 0.05% NP-40, 10% glycerol, 100 ug/mL BSA, 2 mM DTT; recombinant protein; protein details: His; label: 5' IRDye700 strand 1
T1 sequence (looked up, limits assumed): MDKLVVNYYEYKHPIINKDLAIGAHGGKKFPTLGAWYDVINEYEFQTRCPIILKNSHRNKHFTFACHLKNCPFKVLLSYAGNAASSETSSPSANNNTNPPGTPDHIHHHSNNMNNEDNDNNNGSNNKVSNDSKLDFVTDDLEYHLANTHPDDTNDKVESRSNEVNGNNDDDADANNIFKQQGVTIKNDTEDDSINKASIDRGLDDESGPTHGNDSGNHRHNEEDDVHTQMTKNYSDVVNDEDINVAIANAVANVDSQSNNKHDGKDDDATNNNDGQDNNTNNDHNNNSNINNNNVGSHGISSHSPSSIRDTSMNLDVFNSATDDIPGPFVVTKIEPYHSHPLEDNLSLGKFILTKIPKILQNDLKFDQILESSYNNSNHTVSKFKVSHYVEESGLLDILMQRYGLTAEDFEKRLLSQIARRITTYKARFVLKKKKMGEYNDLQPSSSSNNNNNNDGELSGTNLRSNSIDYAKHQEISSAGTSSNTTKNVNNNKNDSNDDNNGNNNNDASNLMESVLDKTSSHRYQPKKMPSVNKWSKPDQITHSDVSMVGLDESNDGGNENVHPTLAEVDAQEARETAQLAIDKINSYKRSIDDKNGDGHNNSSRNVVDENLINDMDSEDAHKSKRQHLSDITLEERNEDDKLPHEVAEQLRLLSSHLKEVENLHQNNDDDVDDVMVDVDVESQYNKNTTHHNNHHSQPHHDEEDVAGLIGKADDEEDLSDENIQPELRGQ

[2] = biological target: T2, Reb1 (Saccharomyces cerevisiae) (UniProt P21538); assay: EMSA; details: naked DNA; 11.87 mM HEPES-KOH pH 7.9, 3 mM Tris-Cl, 96.67 mM NaCl, 3.33 mM KCl, 5.3 mM MgCl2, 0.13 mM Mg acetate, 1.33 uM ZnCl2, 0.05% NP-40, 10% glycerol, 100 ug/mL BSA, 2 mM DTT; recombinant protein; protein details: His; label: 5' IRDye700 strand 1
T2 sequence (looked up, limits assumed): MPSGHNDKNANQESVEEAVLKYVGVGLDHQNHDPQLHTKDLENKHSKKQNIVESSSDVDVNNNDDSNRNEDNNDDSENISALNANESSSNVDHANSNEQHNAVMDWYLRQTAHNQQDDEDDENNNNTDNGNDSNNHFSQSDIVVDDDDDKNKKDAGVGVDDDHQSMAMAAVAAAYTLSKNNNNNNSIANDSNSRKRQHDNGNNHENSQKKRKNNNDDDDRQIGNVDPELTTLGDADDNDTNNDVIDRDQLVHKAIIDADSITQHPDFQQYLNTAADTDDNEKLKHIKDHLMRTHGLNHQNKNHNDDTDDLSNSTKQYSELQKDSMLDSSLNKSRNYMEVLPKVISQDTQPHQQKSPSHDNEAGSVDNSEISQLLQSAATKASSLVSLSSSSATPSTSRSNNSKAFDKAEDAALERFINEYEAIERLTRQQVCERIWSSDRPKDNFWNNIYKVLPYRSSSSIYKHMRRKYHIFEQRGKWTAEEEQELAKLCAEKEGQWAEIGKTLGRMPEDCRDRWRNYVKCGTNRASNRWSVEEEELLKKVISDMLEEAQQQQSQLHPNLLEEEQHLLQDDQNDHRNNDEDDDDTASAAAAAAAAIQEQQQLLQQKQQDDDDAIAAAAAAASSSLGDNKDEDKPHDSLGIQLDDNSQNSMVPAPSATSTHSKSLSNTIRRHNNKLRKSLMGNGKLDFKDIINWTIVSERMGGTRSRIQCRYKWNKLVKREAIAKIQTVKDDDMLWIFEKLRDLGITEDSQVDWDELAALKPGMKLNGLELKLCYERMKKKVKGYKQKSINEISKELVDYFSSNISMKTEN

[3] = biological target: T1, Abf1 (Saccharomyces cerevisiae); assay: competition with a labelled probe; details: unlabeled chaser 100x, efficient competitor for all Abf1 probes; 11.87 mM HEPES-KOH pH 7.9, 3 mM Tris-Cl, 96.67 mM NaCl, 3.33 mM KCl, 5.3 mM MgCl2, 0.13 mM Mg acetate, 1.33 uM ZnCl2, 0.05% NP-40, 10% glycerol, 100 ug/mL BSA, 2 mM DTT; recombinant protein; protein details: His

Sequence: ACAGGATGTATATATCTGACACGTGCCTGGAGACTAGGGAGTAATCCCCTTGGCGGTTAAAACGCGGGGGACAGCGCGTACGTGCGTTTAAGCGGTGCTAGAGCTGTCTACGACCAATTGAGCGGCCTCGGCACCGGGATTCTCCAGGGCGGCCGCTTATCGTATAAAGTGATAGGGTGATGACCGCGGACCTGCAGGCATGCAAGCTTGAGTATTCTATAGTGTCA (double strand) [A3G naked DNA probe]
- binding result [1]: binds

Sequence: ACAGGATGTATATATCTGACACGTGCCTGGAGACTAGGGAGTAATCCCCTTGGCGGTTAAAACGCGGGGGACAGCGCGTACGTGCGTTTAAGCGGTGCTAGAGCTGTCTACGACCAATTGAGCGGCCTCGGCACCGGGATTCTCCAGGGCGGCCGGCCGGGTAACGCATCACCATGGTGATGACCGCGGACCTGCAGGCATGCAAGCTTGAGTATTCTATAGTGTCA (double strand) [G-GC naked DNA probe]
- binding result [2]: binds

Sequence: GGCCGCTTATCGTATAAAGTGATAGGGTGATGACCGCGGACCTGCA / GGTCCGCGGTCATCACCCTATCACTTTATACGATAAGC [Abf1 A3G chaser]
- binding result [3]: binds
